The supplement of paper PMC10849652
This is one part of the list. Residues, ends and D or L forms follow the SMILES beside them. *: point of attachment. Cbz = O=C(OCc1ccccc1)*

Amino acid sequences for entries named in this document (tags omitted). A change or cut given only in a name is not applied to a line headed by its entry.
UniProt Q13542: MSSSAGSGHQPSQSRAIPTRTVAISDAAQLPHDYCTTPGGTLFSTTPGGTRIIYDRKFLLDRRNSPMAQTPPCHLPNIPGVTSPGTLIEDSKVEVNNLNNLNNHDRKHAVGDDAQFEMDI
UniProt O43324: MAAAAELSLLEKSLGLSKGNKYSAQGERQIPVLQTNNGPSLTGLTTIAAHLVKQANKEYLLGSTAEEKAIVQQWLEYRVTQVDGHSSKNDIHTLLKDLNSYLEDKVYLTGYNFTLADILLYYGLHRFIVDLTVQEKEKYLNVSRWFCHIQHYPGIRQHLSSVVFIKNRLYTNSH
UniProt Q14152, whole entry, looked up: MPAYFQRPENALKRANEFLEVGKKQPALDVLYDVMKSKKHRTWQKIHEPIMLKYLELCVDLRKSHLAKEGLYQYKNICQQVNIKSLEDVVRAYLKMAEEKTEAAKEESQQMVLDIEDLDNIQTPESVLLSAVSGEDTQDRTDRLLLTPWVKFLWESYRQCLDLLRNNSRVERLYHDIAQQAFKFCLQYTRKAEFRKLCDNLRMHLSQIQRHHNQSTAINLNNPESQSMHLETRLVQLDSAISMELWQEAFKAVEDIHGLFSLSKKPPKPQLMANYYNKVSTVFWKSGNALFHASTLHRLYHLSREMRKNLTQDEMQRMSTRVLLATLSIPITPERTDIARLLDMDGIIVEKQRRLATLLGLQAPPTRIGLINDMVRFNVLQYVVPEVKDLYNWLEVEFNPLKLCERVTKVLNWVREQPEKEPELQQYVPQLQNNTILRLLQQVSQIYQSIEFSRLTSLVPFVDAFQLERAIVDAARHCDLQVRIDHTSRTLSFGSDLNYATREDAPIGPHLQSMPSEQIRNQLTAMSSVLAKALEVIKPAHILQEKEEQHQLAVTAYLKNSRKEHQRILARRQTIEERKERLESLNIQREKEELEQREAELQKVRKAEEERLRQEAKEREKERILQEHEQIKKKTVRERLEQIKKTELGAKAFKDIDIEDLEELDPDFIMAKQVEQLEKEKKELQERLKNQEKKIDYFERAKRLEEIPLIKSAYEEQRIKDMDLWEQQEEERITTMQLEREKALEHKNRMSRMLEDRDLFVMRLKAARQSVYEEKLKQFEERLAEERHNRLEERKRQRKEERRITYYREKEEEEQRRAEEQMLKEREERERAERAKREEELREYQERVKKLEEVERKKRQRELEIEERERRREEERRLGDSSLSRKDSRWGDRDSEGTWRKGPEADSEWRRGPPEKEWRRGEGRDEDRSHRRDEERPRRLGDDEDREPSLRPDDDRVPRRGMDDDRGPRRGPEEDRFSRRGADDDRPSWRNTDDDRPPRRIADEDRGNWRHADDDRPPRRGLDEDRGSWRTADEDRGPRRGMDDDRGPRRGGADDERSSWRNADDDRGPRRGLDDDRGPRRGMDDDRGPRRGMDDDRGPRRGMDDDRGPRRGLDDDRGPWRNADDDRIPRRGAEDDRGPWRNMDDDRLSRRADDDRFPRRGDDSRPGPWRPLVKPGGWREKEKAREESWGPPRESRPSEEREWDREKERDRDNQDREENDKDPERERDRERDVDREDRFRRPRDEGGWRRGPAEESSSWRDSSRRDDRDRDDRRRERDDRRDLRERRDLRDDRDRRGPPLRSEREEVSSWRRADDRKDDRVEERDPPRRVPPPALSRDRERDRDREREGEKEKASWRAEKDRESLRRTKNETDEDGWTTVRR
UniProt P60228, whole entry, looked up: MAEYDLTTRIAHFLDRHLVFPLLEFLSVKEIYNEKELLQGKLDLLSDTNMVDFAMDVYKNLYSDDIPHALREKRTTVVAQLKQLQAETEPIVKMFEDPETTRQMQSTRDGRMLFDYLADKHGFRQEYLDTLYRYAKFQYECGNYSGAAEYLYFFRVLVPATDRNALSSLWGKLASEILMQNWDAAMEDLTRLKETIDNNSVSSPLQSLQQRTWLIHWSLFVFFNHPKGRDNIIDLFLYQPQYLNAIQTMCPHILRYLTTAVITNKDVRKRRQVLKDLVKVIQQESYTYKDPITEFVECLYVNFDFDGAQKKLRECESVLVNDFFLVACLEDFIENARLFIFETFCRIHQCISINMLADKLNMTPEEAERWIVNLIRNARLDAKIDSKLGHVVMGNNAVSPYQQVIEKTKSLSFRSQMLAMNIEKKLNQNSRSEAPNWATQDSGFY
UniProt Q8N766: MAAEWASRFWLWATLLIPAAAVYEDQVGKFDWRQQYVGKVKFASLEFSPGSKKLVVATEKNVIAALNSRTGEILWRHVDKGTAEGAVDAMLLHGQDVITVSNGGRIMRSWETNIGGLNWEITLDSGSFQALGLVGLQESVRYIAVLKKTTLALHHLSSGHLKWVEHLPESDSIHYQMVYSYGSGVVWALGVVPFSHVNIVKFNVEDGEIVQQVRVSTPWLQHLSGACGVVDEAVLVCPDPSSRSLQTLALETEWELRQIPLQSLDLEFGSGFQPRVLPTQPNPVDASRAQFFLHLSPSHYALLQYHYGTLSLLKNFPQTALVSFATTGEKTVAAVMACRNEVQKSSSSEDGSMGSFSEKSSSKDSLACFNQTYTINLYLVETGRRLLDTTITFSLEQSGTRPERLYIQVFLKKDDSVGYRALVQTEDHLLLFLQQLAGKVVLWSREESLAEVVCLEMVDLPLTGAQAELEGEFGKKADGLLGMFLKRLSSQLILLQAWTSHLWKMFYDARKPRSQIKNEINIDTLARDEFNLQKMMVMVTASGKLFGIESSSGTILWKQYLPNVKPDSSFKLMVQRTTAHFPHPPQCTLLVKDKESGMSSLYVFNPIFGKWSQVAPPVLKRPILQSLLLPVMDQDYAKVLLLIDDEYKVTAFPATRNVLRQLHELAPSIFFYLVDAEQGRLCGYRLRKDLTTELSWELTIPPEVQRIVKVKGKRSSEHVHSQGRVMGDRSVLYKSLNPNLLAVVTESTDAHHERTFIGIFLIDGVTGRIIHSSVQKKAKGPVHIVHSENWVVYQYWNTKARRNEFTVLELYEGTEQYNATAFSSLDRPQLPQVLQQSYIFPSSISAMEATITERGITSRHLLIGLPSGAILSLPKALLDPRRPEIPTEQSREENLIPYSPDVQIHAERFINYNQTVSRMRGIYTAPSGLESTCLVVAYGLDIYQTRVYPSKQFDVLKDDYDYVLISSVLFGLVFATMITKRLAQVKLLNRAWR
UniProt P23588, whole entry, looked up: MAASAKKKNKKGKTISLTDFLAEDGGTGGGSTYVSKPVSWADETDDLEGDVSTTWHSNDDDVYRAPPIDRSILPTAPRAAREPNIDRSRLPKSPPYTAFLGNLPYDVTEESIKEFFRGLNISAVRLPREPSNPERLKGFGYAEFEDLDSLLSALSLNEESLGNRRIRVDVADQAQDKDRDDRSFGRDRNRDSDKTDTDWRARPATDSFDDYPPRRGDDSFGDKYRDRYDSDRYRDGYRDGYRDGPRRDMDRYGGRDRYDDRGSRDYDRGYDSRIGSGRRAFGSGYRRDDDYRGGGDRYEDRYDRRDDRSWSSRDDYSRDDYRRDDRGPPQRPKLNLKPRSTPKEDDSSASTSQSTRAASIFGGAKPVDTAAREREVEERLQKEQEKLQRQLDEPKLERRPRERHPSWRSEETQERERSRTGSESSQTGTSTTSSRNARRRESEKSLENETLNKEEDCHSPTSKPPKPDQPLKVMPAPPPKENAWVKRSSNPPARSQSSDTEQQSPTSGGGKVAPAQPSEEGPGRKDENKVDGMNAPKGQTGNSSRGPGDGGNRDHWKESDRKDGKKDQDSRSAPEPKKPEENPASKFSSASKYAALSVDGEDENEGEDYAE
UniProt Q13347, whole entry, looked up: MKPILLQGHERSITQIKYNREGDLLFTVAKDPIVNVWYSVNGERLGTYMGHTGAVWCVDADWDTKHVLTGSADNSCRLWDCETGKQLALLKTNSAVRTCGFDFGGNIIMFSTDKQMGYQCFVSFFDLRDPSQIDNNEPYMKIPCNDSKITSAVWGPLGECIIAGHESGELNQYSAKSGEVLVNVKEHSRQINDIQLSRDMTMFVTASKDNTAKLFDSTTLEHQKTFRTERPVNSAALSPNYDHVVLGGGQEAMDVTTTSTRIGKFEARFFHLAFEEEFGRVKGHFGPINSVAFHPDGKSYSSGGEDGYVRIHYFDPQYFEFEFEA
UniProt Q9NPA8: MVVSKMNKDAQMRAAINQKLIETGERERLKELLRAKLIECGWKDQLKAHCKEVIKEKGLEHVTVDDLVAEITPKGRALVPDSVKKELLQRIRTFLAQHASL
UniProt O14638, whole entry, looked up: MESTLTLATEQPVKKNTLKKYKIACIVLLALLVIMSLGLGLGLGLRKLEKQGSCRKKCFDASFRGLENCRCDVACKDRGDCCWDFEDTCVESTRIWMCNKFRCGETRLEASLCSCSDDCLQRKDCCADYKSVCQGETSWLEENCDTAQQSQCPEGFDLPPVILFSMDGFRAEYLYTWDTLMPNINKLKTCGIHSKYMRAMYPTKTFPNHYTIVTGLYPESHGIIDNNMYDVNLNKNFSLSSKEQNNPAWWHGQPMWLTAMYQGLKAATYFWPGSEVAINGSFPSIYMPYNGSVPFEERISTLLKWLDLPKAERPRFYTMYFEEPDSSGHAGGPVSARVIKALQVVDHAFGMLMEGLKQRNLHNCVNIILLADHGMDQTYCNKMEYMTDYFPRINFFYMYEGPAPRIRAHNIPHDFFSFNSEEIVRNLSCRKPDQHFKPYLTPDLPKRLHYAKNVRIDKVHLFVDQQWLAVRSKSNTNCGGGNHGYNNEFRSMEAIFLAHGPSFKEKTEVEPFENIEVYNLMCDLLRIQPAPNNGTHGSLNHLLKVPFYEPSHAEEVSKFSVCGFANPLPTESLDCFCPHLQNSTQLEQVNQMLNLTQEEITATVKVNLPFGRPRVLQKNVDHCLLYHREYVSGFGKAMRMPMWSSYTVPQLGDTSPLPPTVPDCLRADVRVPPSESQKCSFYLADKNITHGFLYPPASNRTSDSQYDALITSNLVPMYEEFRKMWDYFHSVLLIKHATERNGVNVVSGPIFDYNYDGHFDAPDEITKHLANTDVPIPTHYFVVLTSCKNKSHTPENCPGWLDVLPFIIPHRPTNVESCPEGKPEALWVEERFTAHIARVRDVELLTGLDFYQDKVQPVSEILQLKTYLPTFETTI
UniProt Q14232, whole entry, looked up: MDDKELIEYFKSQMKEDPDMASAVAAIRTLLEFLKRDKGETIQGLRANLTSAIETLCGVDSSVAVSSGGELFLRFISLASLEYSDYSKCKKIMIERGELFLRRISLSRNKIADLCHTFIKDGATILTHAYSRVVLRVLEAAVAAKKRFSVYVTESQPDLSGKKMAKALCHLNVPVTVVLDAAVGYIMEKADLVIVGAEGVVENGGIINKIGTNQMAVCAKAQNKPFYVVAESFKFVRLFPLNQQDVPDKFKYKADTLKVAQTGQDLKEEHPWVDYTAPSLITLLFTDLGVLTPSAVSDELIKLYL
UniProt Q8N9N8: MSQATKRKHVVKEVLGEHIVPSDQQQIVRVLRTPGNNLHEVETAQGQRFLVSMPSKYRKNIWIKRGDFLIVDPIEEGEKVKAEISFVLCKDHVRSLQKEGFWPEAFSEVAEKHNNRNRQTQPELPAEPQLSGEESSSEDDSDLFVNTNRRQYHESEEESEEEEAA
UniProt Q96EB1: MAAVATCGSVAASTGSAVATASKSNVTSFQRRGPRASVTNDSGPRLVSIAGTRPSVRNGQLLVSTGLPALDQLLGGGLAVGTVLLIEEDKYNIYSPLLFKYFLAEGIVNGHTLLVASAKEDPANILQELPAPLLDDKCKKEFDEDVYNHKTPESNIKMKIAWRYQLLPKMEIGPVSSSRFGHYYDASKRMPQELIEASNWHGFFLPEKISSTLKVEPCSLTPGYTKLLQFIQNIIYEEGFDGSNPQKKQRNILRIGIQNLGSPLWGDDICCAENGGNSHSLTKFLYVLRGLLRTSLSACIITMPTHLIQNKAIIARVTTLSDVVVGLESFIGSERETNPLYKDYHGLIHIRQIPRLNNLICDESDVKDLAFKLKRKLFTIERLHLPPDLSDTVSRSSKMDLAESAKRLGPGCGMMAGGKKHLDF
UniProt Q14240, whole entry, looked up: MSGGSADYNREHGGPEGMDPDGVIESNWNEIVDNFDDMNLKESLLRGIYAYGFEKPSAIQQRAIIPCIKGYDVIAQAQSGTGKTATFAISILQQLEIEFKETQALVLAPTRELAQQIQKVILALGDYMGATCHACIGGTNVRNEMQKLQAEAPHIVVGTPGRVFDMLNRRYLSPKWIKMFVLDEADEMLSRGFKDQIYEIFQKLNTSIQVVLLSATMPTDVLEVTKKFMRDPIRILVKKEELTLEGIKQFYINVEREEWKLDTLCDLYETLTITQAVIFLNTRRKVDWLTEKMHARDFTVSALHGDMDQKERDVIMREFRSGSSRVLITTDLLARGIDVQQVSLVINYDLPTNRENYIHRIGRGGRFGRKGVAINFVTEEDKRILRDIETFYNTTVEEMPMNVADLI
UniProt Q9P0I2: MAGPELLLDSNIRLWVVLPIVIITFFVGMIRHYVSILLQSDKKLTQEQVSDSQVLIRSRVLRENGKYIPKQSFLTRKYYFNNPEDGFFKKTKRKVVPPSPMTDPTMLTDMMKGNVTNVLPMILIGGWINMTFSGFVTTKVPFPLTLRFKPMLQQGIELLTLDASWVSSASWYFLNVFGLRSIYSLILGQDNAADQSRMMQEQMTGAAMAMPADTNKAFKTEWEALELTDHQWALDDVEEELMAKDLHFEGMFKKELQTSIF

Key:
Assay in all cases: log2 fold change, soluble protein after heating vs DMSO (PISA); higher = thermal stabilisation; K562 cells, 10 uM, 30 min; active = over 0.2 and 3.5 SD of the protein, either way, in both replicates (recomputed)
IRAK-1-4 Inhibitor I = compound: C1COCCN1CCN2C3=CC=CC=C3N=C2NC(=O)C4=CC(=CC=C4)[N+](=O)[O-] [IRAK-1-4 Inhibitor I]
Method in brief: (§1)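 Quantification of soluble protein used TMTpro 16plex LC-MS/MS, with channel sums equalised. Samples were the supernatant after 21,000xg for 90 min of pooled aliquots from K562 cells (2×10^6 cells/mL) treated with 10 μM compound for 30 min, heated for 3 min over 48°C-58°C, and extracted in PBS with 0.5% NP-40 at 4°C. Values, from duplicates, describe thermal stability against control samples on a log2 fold-change scale.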

ibrutinib = compound: C=CC(=O)N1CCC[C@@H](n2nc(-c3ccc(Oc4ccccc4)cc3)c3c(N)ncnc32)C1 [ibrutinib]
Method in brief: as §1

[1] = compound: CC(=O)c1cnc2ccc(-c3cc(Cl)c(O)c(Cl)c3)nc2c1N[C@H]1CC[C@H](CN(C)C)CC1
Method in brief: as §1

ralimetinib = compound: CC(C)(C)Cn1c(N)nc2ccc(-c3[nH]c(C(C)(C)C)nc3-c3ccc(F)cc3)nc21 [ralimetinib]
Method in brief: as §1

[2] = compound: CC(C)(O)CC(=O)NCCn1ccc2ncnc(Nc3ccc(Oc4cccc(C(F)(F)F)c4)c(Cl)c3)c21
Method in brief: as §1

[3] = compound: CC(C)C1=C2N=C(C=C(N2N=C1)NCC3=CC=CC=C3)NCCCCCCN
Method in brief: as §1

[4] = compound: CC(C)C[C@@H](C=O)NC(=O)[C@H](CC(C)C)NC(=O)[C@H](CC(C)C)NC(=O)OCc1ccccc1
Method in brief: as §1

pinometostat = compound: CC(C)N(C[C@H]1O[C@@H](n2cnc3c(N)ncnc32)[C@H](O)[C@@H]1O)[C@H]1C[C@@H](CCc2nc3cc(C(C)(C)C)ccc3[nH]2)C1 [pinometostat]
Method in brief: as §1

[5] = compound: CC1=C(C(CC(=O)N1)C2=CC=C(C=C2)C(F)(F)F)C(=O)NC3=C(C=C4C(=C3)C=NN4)F
Method in brief: as §1

[6] = compound: CC1=C(C2=C(C=C1)C(=O)C3=CC=CC=C3N2CCCN)C
Method in brief: as §1

Measured: log2 fold change

EIF2B5 (UniProt Q13144)
inactive: IRAK-1-4 Inhibitor I -0.012 | ibrutinib -0.002 | [1] 0.02 | ralimetinib 0.02 | [2] -0.018 | [3] -0.078 | [4] 0.023 | pinometostat 0.077 | [5] -0.015 | [6] 0.04

EIF4EBP2 (UniProt Q13542)
inactive: IRAK-1-4 Inhibitor I -0.139 | ibrutinib 0.038 | [1] -0.106 | ralimetinib -0.165 | [2] -0.238 | [3] 0.141 | [4] 0.012 | pinometostat 0.044 | [5] 0.022 | [6] 0.066

EEF1E1 (UniProt O43324)
inactive: IRAK-1-4 Inhibitor I -0.005 | ibrutinib -0.029 | [1] 0.111 | ralimetinib 0.054 | [2] 0.004 | [3] -0.145 | [4] 0.051 | pinometostat 0.191 | [5] 0.019 | [6] -0.01

EIF3A (UniProt Q14152)
inactive: IRAK-1-4 Inhibitor I -0.191 | ibrutinib -0.029 | [1] 0.027 | ralimetinib 0.082 | [2] -0.081 | [3] -0.269 | [4] 0.078 | pinometostat 0.134 | [5] 0.019 | [6] -0.058

EIF3E (UniProt P60228)
inactive: IRAK-1-4 Inhibitor I -0.286 | ibrutinib -0.05 | [1] -0.089 | ralimetinib 0.21 | [2] -0.04 | [3] -0.238 | [4] 0.136 | pinometostat 0.207 | [5] 0.006 | [6] -0.063

EMC6 (UniProt Q9BV81)
inactive: IRAK-1-4 Inhibitor I -0.207 | ibrutinib 0.021 | [1] 0.074 | ralimetinib -0.025 | [2] -0.022 | [3] 0.03 | [4] -0.093 | pinometostat 0.026 | [5] 0.126 | [6] 0.057

EMC1 (UniProt Q8N766)
inactive: IRAK-1-4 Inhibitor I 0.015 | ibrutinib -0.009 | [1] 0.011 | ralimetinib -0.01 | [2] -0.011 | [3] -0.025 | [4] -0.014 | pinometostat -0.019 | [5] -0.001 | [6] -0.007

EPB41L1 (UniProt Q9H4G0)
inactive: IRAK-1-4 Inhibitor I -0.002 | ibrutinib 0.013 | [1] -0.026 | ralimetinib 0.036 | [2] -0.005 | [3] -0.196 | [4] -0.043 | pinometostat -0.02 | [5] 0.023 | [6] 0.185

EIF4B (UniProt P23588)
inactive: IRAK-1-4 Inhibitor I -0.01 | ibrutinib -0.026 | [1] -0.006 | ralimetinib 0.039 | [2] 0.003 | [3] 0.081 | [4] 0.048 | pinometostat -0.06 | [5] -0.012 | [6] 0.006

EIF3I (UniProt Q13347)
inactive: IRAK-1-4 Inhibitor I -0.121 | ibrutinib -0.035 | [1] 0.019 | ralimetinib 0.054 | [2] -0.073 | [3] -0.191 | [4] 0.078 | pinometostat 0.148 | [5] 0.017 | [6] -0.027

ENY2 (UniProt Q9NPA8)
inactive: IRAK-1-4 Inhibitor I -0.017 | ibrutinib 0.002 | [1] -0.01 | ralimetinib -0.075 | [2] -0.006 | [3] 0.044 | [4] -0.058 | pinometostat -0.024 | [5] 0.04 | [6] 0.051

ENPP3 (UniProt O14638)
inactive: IRAK-1-4 Inhibitor I 0.051 | ibrutinib 0.072 | [1] -0.128 | ralimetinib 0.013 | [2] 0.092 | [3] -0.074 | [4] 0.123 | pinometostat 0.279 | [5] 0.019

EIF2B1 (UniProt Q14232)
inactive: IRAK-1-4 Inhibitor I 0.018 | ibrutinib 0.038 | [1] 0.021 | ralimetinib 0.013 | [2] -0.009 | [3] 0.025 | [4] -0.052 | pinometostat -0.004 | [5] -0.003 | [6] 0.012

Two consecutive entries out of the list so far, quoted:
EIF3I (UniProt Q13347)
inactive: IRAK-1-4 Inhibitor I -0.121 | ibrutinib -0.035 | [1] 0.019 | ralimetinib 0.054 | [2] -0.073 | [3] -0.191 | [4] 0.078 | pinometostat 0.148 | [5] 0.017 | [6] -0.027

ENY2 (UniProt Q9NPA8)
inactive: IRAK-1-4 Inhibitor I -0.017 | ibrutinib 0.002 | [1] -0.01 | ralimetinib -0.075 | [2] -0.006 | [3] 0.044 | [4] -0.058 | pinometostat -0.024 | [5] 0.04 | [6] 0.051

Continuation.

EIF1AD (UniProt Q8N9N8)
inactive: IRAK-1-4 Inhibitor I 0.039 | ibrutinib -0.003 | [1] -0.002 | ralimetinib -0.077 | [2] -0.015 | [3] 0.012 | [4] 0.044 | pinometostat -0.006 | [5] 0.009 | [6] -0.055

ELP4 isoform 3 (UniProt Q96EB1)
inactive: IRAK-1-4 Inhibitor I 0.038 | ibrutinib 0.037 | [1] 0.036 | ralimetinib -0.001 | [2] 0.004 | [3] 0.068 | [4] 0 | pinometostat -0.02 | [5] -0.008 | [6] 0.003

EIF4A2 isoform 2 (UniProt Q14240)
inactive: IRAK-1-4 Inhibitor I -0.001 | ibrutinib -0.039 | [1] -0.097 | ralimetinib -0.033 | [2] -0.036 | [3] -0.042 | [4] -0.008 | pinometostat -0.019 | [5] 0.009 | [6] 0.023

EMC2 (UniProt Q15006)
inactive: IRAK-1-4 Inhibitor I 0.017 | ibrutinib -0.034 | [1] -0.016 | ralimetinib 0.029 | [2] -0.007 | [3] -0.022 | [4] -0.065 | pinometostat -0.067 | [5] -0.003 | [6] 0.016

EMC3 (UniProt Q9P0I2)
inactive: IRAK-1-4 Inhibitor I 0.052 | ibrutinib -0.021 | [1] 0.014 | ralimetinib -0.001 | [2] -0.007 | [3] 0.014 | [4] 0.012 | pinometostat 0.011 | [5] -0.021 | [6] 0.012

ELP6 (UniProt Q0PNE2)
inactive: IRAK-1-4 Inhibitor I 0.023 | ibrutinib -0.015 | [1] -0.035 | ralimetinib -0.057 | [2] -0.017 | [3] 0.061 | [4] 0.018 | pinometostat 0.02 | [5] -0.005 | [6] 0.015

ELOB (UniProt Q15370)
inactive: IRAK-1-4 Inhibitor I 0.011 | ibrutinib -0.03 | [1] 0 | ralimetinib -0.093 | [2] -0.043 | [3] 0.013 | [4] -0.025 | pinometostat -0.006 | [5] 0.015 | [6] 0.093

EI24 (UniProt O14681)
inactive: IRAK-1-4 Inhibitor I 0.001 | ibrutinib 0.018 | [1] 0.065 | ralimetinib 0.056 | [2] -0.01 | [3] -0.145 | [4] -0.084 | pinometostat -0.072 | [5] 0.029 | [6] 0.008

EHD4 (UniProt Q9H223)
inactive: IRAK-1-4 Inhibitor I 0.044 | ibrutinib -0.01 | [1] -0.044 | ralimetinib -0.045 | [2] -0.041 | [3] -0.018 | [4] 0.04 | pinometostat 0.016 | [5] 0.002 | [6] 0.01

EMC7 (UniProt Q9NPA0)
inactive: IRAK-1-4 Inhibitor I 0.029 | ibrutinib -0.01 | [1] -0.071 | ralimetinib -0.108 | [2] -0.007 | [3] -0.037 | [4] 0.043 | pinometostat 0.004 | [5] -0.024 | [6] 0.058

EIF4EBP1 (UniProt Q13541)
inactive: IRAK-1-4 Inhibitor I 0.02 | ibrutinib 0.068 | [1] -0.22 | ralimetinib -0.072 | [2] -0.058 | [3] 0.024 | [4] 0.014 | pinometostat -0.031 | [5] 0.005 | [6] 0.112

ELAC2 (UniProt Q9BQ52)
inactive: IRAK-1-4 Inhibitor I 0.016 | ibrutinib 0.034 | [1] 0 | ralimetinib -0.019 | [2] -0.059 | [3] 0.062 | [4] -0.005 | pinometostat -0.007 | [5] 0.011 | [6] 0

ELAVL1 isoform 2 (UniProt Q15717)
inactive: IRAK-1-4 Inhibitor I -0.119 | ibrutinib -0.019 | [1] 0.025 | ralimetinib 0.184 | [2] 0.034 | [3] -0.001 | [4] 0.263 | pinometostat 0.261 | [5] -0.019 | [6] -0.042

EIF3F (UniProt O00303)
inactive: IRAK-1-4 Inhibitor I -0.118 | ibrutinib -0.051 | [1] 0.023 | ralimetinib 0.068 | [2] -0.038 | [3] -0.131 | [4] -0.042 | pinometostat 0.047 | [5] 0 | [6] -0.007
